These are yes or no findings as the source states them, for the method shown. Binding seen in cells or lysates may run through a third protein. Some binding calls cover weakened binding; strength is not graded here. For some of these results: Where a sequence is shown, tags or fusion partners need not be part of it.
T1: SEPT9_i1-YN (split-YFP chimera: septin 9 isoform 1 with EE tag, linker and N-terminal YFP fragment on its C-terminus) (human) (UniProt Q9UHD8)
T1 sequence: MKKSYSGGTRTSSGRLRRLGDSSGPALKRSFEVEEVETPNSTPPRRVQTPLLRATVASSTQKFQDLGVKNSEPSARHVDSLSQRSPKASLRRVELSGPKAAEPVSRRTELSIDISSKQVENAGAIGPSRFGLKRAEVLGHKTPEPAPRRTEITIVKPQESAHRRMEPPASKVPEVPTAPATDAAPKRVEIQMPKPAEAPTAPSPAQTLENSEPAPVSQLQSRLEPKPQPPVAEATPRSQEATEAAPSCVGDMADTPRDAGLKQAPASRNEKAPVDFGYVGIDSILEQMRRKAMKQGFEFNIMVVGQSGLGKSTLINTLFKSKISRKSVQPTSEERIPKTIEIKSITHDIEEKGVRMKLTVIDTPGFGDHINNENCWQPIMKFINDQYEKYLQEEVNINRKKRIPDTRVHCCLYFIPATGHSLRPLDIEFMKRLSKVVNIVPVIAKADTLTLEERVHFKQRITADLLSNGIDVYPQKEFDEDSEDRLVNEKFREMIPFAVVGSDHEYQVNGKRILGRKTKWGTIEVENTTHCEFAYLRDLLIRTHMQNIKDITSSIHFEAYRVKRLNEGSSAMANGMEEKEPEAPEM

The chains behind the UniProt entries cited, without tags or fusion partners. Where a name states a change or a piece, a line headed by the entry shows the natural chain unless it says otherwise.
UniProt Q16665: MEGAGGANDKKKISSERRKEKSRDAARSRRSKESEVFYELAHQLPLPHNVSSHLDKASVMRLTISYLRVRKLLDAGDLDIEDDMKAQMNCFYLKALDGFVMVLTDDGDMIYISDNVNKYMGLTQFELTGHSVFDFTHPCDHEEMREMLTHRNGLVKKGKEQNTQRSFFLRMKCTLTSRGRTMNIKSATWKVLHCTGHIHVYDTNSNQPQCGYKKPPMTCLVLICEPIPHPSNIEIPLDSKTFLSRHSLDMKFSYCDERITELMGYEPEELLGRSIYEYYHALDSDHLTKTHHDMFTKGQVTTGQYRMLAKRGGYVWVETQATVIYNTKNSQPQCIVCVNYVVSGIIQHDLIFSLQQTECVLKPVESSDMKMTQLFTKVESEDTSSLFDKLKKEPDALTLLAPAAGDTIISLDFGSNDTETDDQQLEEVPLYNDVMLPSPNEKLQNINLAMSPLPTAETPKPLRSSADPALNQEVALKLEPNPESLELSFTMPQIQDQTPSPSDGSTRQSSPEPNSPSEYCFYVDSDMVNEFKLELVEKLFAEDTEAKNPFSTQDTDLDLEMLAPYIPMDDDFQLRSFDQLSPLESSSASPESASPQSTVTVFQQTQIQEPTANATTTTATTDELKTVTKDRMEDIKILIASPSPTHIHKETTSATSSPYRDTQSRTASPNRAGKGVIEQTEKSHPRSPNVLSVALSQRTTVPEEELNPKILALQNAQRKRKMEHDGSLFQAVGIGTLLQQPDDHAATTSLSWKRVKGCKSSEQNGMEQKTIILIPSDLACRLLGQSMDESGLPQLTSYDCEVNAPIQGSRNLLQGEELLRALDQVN

B1: SEPT9_i1 252-379aa fragment (domain or fragment, UniProt Q9UHD8 252-379)
chain: MADTPRDAGLKQAPASRNEKAPVDFGYVGIDSILEQMRRKAMKQGFEFNIMVVGQSGLGKSTLINTLFKSKISRKSVQPTSEERIPKTIEIKSITHDIEEKGVRMKLTVIDTPGFGDHINNENCWQPI

Legend:
[1] = target: T1, SEPT9_i1-YN (split-YFP chimera: septin 9 isoform 1 with EE tag, linker and N-terminal YFP fragment on its C-terminus) (human); test: split reporter; split YFP in live PC-3 cells stably transfected with SEPT9_i1-YN and Tet-On inducible YC-HIF-1α (clone #23); 1 μg/ml Dox, 100 μM DBM or 0.01% DMSO
[2] = target: T1, SEPT9_i1-YN (split-YFP chimera: septin 9 isoform 1 with EE tag, linker and N-terminal YFP fragment on its C-terminus) (human); test: split reporter; split YFP in live PC-3 cells, YC-HIF-1α and SEPT9_i1-YN transiently co-expressed with the SEPT9_i1 252-379aa fragment or its empty vector; 100 μM DBM or 0.01% DMSO overnight
[3] = target: T1, SEPT9_i1-YN (split-YFP chimera: septin 9 isoform 1 with EE tag, linker and N-terminal YFP fragment on its C-terminus) (human); test: split reporter; split YFP (YN/YC) in live PC-3 cells, transient co-transfection with 10-fold more HIF-1α plasmid than SEPT9_i1 plasmid, confocal imaging 48 h after transfection; cells treated overnight with 250 μM CoCl2, 100 μM DBM, DBM with 1 μM 17-AAG or 150 μM FCF, or 0.01% DMSO
[4] = target: YC-HIF-1α (split-YFP chimera: C-terminal YFP fragment, linker and HA tag on the N-terminus of hypoxia-inducible factor 1α) (human) (UniProt Q16665); test: split reporter; split YFP in live PC-3 cells, YC-HIF-1α and SEPT9_i1-YN transiently co-expressed with the SEPT9_i1 252-379aa fragment or its empty vector; 100 μM DBM or 0.01% DMSO overnight

Molecule | binding [1] | binding [2] | binding [3] | binding [4]
YC-HIF-1α (split-YFP chimera: C-terminal YFP fragment, linker and HA tag on the N-terminus of hypoxia-inducible factor 1α) (from UniProt Q16665 1-826) | binds | binds | binds | –
B1 | – | – | – | binds
